Assay results as given in doi:10.1101/2020.10.20.346858.
Read-outs that look alike come from different tables or passages of the source. These are yes or no findings as the source states them, for the method shown. In cells and extracts the contact can be indirect. Some entries that bind do so weakly or less than the wild type. For some of these results: Where a sequence is shown, tags or fusion partners need not be part of it. Each block holds one molecule with its values, some of them ahead of it.

The chains behind the UniProt entries cited, without tags or fusion partners. Where a name states a change or a piece, a line headed by the entry shows the natural chain unless it says otherwise.
UniProt Q05639, whole entry: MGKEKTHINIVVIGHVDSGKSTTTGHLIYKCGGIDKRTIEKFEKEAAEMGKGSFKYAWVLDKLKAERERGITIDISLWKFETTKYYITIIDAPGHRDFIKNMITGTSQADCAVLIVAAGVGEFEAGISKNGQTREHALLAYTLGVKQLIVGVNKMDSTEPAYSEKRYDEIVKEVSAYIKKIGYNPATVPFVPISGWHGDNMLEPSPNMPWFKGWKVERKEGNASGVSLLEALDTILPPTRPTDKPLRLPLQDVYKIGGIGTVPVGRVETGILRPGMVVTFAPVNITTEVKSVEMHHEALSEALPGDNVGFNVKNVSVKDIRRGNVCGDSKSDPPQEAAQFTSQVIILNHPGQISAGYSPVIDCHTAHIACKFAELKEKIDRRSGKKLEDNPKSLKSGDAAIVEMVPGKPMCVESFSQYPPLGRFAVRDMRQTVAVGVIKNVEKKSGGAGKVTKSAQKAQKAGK

Key:
[1] = molecular target: FLAG-eEF1A2 SA (phosphoablated mutant) (UniProt Q05639); experiment: co-IP
[2] = molecular target: FLAG-eEF1A2 SE (phosphomimetic mutant) (UniProt Q05639); experiment: co-IP
[3] = molecular target: FLAG-eEF1A2 SA (phosphoablated mutant) (UniProt Q05639); experiment: co-IP; remark: listed apart in the source
[4] = molecular target: FLAG-eEF1A2 wt (eukaryotic elongation factor 1 alpha 2) (UniProt Q05639); experiment: co-IP
mGFP-eEF1A2 SE [5] = molecular target: mGFP-eEF1A2 SE (UniProt Q05639); experiment: FRET or BRET
mGFP-eEF1A2 SA [6] = molecular target: mGFP-eEF1A2 SA (UniProt Q05639); experiment: FRET or BRET
mGFP-eEF1A2 wt [7] = molecular target: mGFP-eEF1A2 wt (UniProt Q05639); experiment: FRET or BRET
mGFP-eEF1A2 SE [8] = molecular target: mGFP-eEF1A2 SE (UniProt Q05639); experiment: FRET or BRET; remark: listed apart in the source
mGFP-eEF1A2 SA [9] = molecular target: mGFP-eEF1A2 SA (UniProt Q05639); experiment: FRET or BRET; remark: listed apart in the source
mGFP-eEF1A2 wt [10] = molecular target: mGFP-eEF1A2 wt (UniProt Q05639); experiment: FRET or BRET; remark: listed apart in the source

B1: HA-eEF1B2 (protein, UniProt P24534 1-225)
chain: MGFGDLKSPAGLQVLNDYLADKSYIEGYVPSQADVAVFEAVSSPPPADLCHALRWYNHIKSYEKEKASLPGVKKALGKYGPADVEDTTGSGATDSKDDDDIDLFGSDDEEESEEAKRLREERLAQYESKKAKKPALVAKSSILLDVKPWDDETDMAKLEECVRSIQADGLVWGSSKLVPVGYGIKKLQIQCVVEDDKVGTDMLEEQITAFEDYVQSMDVAAFNKI
binding [3]: binds
binding [4]: binds

B2: mScarlet-eEF1B2 (protein, UniProt P24534 1-225)
chain: MGFGDLKSPAGLQVLNDYLADKSYIEGYVPSQADVAVFEAVSSPPPADLCHALRWYNHIKSYEKEKASLPGVKKALGKYGPADVEDTTGSGATDSKDDDDIDLFGSDDEEESEEAKRLREERLAQYESKKAKKPALVAKSSILLDVKPWDDETDMAKLEECVRSIQADGLVWGSSKLVPVGYGIKKLQIQCVVEDDKVGTDMLEEQITAFEDYVQSMDVAAFNKI
binding (mGFP-eEF1A2 SE [5]): binds
binding (mGFP-eEF1A2 SA [6]): binds
binding (mGFP-eEF1A2 wt [7]): binds
binding (mGFP-eEF1A2 SE [8]): binds
binding (mGFP-eEF1A2 SA [9]): binds
binding (mGFP-eEF1A2 wt [10]): binds

The next lines start with the values.

binding [1]: binds
Molecule: FLAG-eEF1A2 SA (phosphoablated mutant) (from UniProt Q05639 1-463)

binding [2]: binds
Molecule: FLAG-eEF1A2 SE (phosphomimetic mutant) (from UniProt Q05639 1-463)
